Binding signal data for 42 sequences are collected here from publication PMC7819943, “Rice protein-binding microarrays: a tool to detect cis-acting elements near promoter regions in rice”.

Some of the results follow.

In the experiment the target is T1, OsSMF1 (Oryza sativa, UniProt Q6ZLB0 1-436).
T1 sequence: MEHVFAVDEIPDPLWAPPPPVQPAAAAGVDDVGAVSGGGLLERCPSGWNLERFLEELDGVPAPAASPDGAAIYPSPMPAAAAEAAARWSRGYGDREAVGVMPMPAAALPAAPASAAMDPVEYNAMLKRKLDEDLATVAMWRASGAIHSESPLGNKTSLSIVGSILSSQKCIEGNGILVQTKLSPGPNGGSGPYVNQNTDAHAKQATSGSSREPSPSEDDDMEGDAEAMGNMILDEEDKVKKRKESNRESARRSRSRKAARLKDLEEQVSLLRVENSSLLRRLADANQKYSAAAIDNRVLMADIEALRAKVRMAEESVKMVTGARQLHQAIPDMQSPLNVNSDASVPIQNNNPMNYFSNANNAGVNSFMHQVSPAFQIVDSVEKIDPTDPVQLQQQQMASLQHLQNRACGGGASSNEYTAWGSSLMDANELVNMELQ
The experiment can be described thus: protein-binding microarray (RPBM); PBS, 2% BSA, 51.3 ng/ul salmon testes DNA, 50 uM zinc acetate, 200 nM TF, 25 C, 1 h; high values mean tight binding. The conditions noted are these: protein: recombinant; tags: N-terminal polyhistidine and DsRed monomer fusion (pET32a); chain copies: 2; label: CyDye5-dUTP incorporated in the synthesized complementary strand; 3' TTTTT single-stranded linker to array surface; dsDNA, one strand shown. Put shortly: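 In PBS with 2% BSA, salmon testes DNA and 50 µM zinc acetate, 200 nM protein was incubated on a custom Agilent array at 25 °C for 1 h and then washed off. The array had been made double-stranded by primer extension with Cy5-dUTP and blocked with 2% BSA. The proteins were transcription factors fused N-terminally to polyhistidine and DsRed, expressed in E. coli BL21-CodonPlus and purified on Ni–NTA. The binding signal is per-feature fluorescence intensity (arbitrary units) from an Axon 4000B scanner.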
On to “TTATTTATTGTGGCCTACCTCTTGTCACCGCTGCTAGCTCCGGAGTCACCTAGTGCAG”, for which the binding signal was 3950 fluorescence intensity (a.u.).
Take “GCTACATTTTCGTCGACGTACGTCAGTGACACATGAACTACGGAGTCACCTAGTGCAG”: the binding signal was 4800 fluorescence intensity (a.u.).
For “GCTAGCCAATCCGCCGCCGCCACCTCACCCAACCAATCCGCGGAGTCACCTAGTGCAG”, the binding signal was 4840 fluorescence intensity (a.u.).
The same measure for “ACAGCACGCATCGCGTTTACACGTAGGTAGCCGTCGGATCCGGAGTCACCTAGTGCAG”: 8350 fluorescence intensity (a.u.); for “CTTCGGTGAGGCAGAATTTATATATTGAGCACAAATATAGCGGAGTCACCTAGTGCAG”: 19300 fluorescence intensity (a.u.).
As to “TCCGAAATTGTTGTAATCGATCTGGGTCAGCAGTTCTGCTCGGAGTCACCTAGTGCAG”, the binding signal was 3760 fluorescence intensity (a.u.).
In the case of “CCGGAGCAGATCCGGATCCTGGAGGCGATCTTCAACTCCGCGGAGTCACCTAGTGCAG”, the binding signal is 37900 fluorescence intensity (a.u.).
In the case of “AAACCTGAAAACCCTCGCCGCTTCTCCCCGTCCTTCCTTTCGGAGTCACCTAGTGCAG” it was 3320 fluorescence intensity (a.u.); in that of “CCGCGGGAGAGAAGGCCCAATCGTGCGCCACGCGTCGTACCGGAGTCACCTAGTGCAG”, 7860 fluorescence intensity (a.u.).
Regarding “CAGACCAGGGTTACTCTCCTCAACATTCTTAGCTCATAGACGGAGTCACCTAGTGCAG”, the binding signal was 47700 fluorescence intensity (a.u.).
As for “CTAGCCGACGTACCTAGGCGAGGGTGGACGTGATGGAGTTCGGAGTCACCTAGTGCAG”, the binding signal is 27400 fluorescence intensity (a.u.).
In the case of “TACAGCTGACAGGGTTGTAAAGGCCTGTGGACCAGCCAGTCGGAGTCACCTAGTGCAG” it was 19000 fluorescence intensity (a.u.); in that of “CATGGACGAGCATGGCTCATGGCTGACTCGACATTAGAAACGGAGTCACCTAGTGCAG”, 3850 fluorescence intensity (a.u.); in that of “ACAATCATCATTCATTCATGTTACCATGTCACCAGTCTCACGGAGTCACCTAGTGCAG”, 3800 fluorescence intensity (a.u.).
“TTTTGTTCGCTACTATAGGCCCACACGTCTGTGCCCATGGCGGAGTCACCTAGTGCAG”: the binding signal was 3660 fluorescence intensity (a.u.).
The same measure for “TGCATGGGCCGGTGTAATGAGCTGGGTAGTAATTGGGCCCCGGAGTCACCTAGTGCAG”: 3160 fluorescence intensity (a.u.); for “ACTGCTCACGCCTTAACTGCGCGTCTTAAGGTGGCGTGGCCGGAGTCACCTAGTGCAG”: 4310 fluorescence intensity (a.u.); for “TTGTGCGCCAGCTTGGGGACAAGCTGATACTTTGGCGGGTCGGAGTCACCTAGTGCAG”: 3440 fluorescence intensity (a.u.).
The same measure for “TATCAGTCACTGACAGGTGGGTCCCACCTGCTGACTCAGCCGGAGTCACCTAGTGCAG”: 16100 fluorescence intensity (a.u.).
In the case of “AAGAAGGGGAGTGGATTGTATAGGGGTGGATGGGGATCGACGGAGTCACCTAGTGCAG” it was 3510 fluorescence intensity (a.u.).
With “GAATAGAAAACGTAAAACCGTAGTGACAAAGCAGCCCGCGCGGAGTCACCTAGTGCAG”, the binding signal is 4370 fluorescence intensity (a.u.).
Regarding “AAAGCTTGTGTCTACAAATAGGTTACTTGTTCCTGGCCATCGGAGTCACCTAGTGCAG”, the binding signal is 20200 fluorescence intensity (a.u.).
With “ATTTAACTGCATAGAAGTGTATAAGTAAAATAATTTATTCCGGAGTCACCTAGTGCAG”, the binding signal is 4320 fluorescence intensity (a.u.).
The same measure for “GGGCTTGCCCATTACGCGTTGCTATAGACGCCCTTTCATTCGGAGTCACCTAGTGCAG”: 41600 fluorescence intensity (a.u.).
Consider “ACGTGGTGGTGGACGTCTGCTCCCGTCAGCAAGGAGATCCCGGAGTCACCTAGTGCAG”, for which the binding signal is 4500 fluorescence intensity (a.u.).
Take “TAAACACAGCCTTTGATGTAATGGGAATGTTGAAAGTTCGCGGAGTCACCTAGTGCAG”: the binding signal was 6410 fluorescence intensity (a.u.).
The same measure for “GTAGGAGAGGACACGTGAACTCGTCCCGCGTGGTCGTGTACGGAGTCACCTAGTGCAG”: 3710 fluorescence intensity (a.u.); for “TATATTATTATGTGTATATGTGACGTACGTGCAGCCAACTCGGAGTCACCTAGTGCAG”: 4280 fluorescence intensity (a.u.); for “CATCAGAACACTGCCAGGTGGGCCACCGTGTCGTGTGGGCCGGAGTCACCTAGTGCAG”: 3500 fluorescence intensity (a.u.).
Turning to “AAATACCACCCCTCCTGCTCAACCTCTCTCACCCATCATCCGGAGTCACCTAGTGCAG”, the binding signal is 3160 fluorescence intensity (a.u.).
The same measure for “ATTTCATAATATTTAAAATCCAAATTCCACGTAATTTATACGGAGTCACCTAGTGCAG”: 3430 fluorescence intensity (a.u.); for “CTTATGCTAAGTTGGGGTCGGGGAGACTGGGGAGCTTCTCCGGAGTCACCTAGTGCAG”: 4020 fluorescence intensity (a.u.).
The same measure for “ACCAAATATGGGCCAGGTCAACGAGCCGAGGTCAACATGTCGGAGTCACCTAGTGCAG”: 3540 fluorescence intensity (a.u.); for “GCCCTTTCACAAATATCTGCGTCATCACCGTCGACATCGCCGGAGTCACCTAGTGCAG”: 6580 fluorescence intensity (a.u.); for “ACCGCAATGATTCACTTAAACAAGTTCATGGGTCTTAACGCGGAGTCACCTAGTGCAG”: 3620 fluorescence intensity (a.u.).
As to “TGCCATAAAGCGTGTTTGCTGACTAGCTAAAGTATGCAAACGGAGTCACCTAGTGCAG”, the binding signal is 3540 fluorescence intensity (a.u.).
In the case of “TGCCAACGGCGCCACGCCACCAACCTCCGATCGATCGATCCGGAGTCACCTAGTGCAG” it was 4610 fluorescence intensity (a.u.); in that of “GACGACCCTGACAGGTGGGGCCCACCTGTCAGCGGGCGGACGGAGTCACCTAGTGCAG”, 3640 fluorescence intensity (a.u.); in that of “GCCCATAAAACCGTGCCACCAGGCTAATCCAATCACCGAGCGGAGTCACCTAGTGCAG”, 3180 fluorescence intensity (a.u.).
In the case of “AGTTCTTGCTGACATACTTGATCTCCAGGATCTCTTCCACCGGAGTCACCTAGTGCAG” it was 4550 fluorescence intensity (a.u.); in that of “TCTCGTTATTGCTTCGTCAAGCCAAATATTGACTGCTGGTCGGAGTCACCTAGTGCAG”, 3350 fluorescence intensity (a.u.); in that of “GATTTTCTCTGTCTGCTCGGCTGCTCGCTTGCTTGCGCTGCGGAGTCACCTAGTGCAG”, 3710 fluorescence intensity (a.u.).
